PubChem BioAssay AID1259254 | NCATS, 2017
Here is one part, drawn at random, of about 59,000 reagents tested. In the full data, about 1,550 (2.6%) are marked active. 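G2 share is only a proxy for re-replication; each gene was hit by three separate siRNAs, and active genes were retested.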 The raw values are shown without normalisation. The numbers tell different reagents against one gene apart. Reagent sequences are not shown. Not given: the amount of reagent.

Assay: 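Finding genes that stop cells copying their DNA twice in one cycle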 (primary screen)
Cell system: human HCT116 colorectal cancer cells
Reagents: single siRNA against human genes
Timing: 3 days
Read-out: 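Imaged Hoechst DNA stain sorts each cell into a cycle phase by DNA amount; per plate, G2 fraction set to 0% for non-targeting and 100% for GMNN siRNA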
Reading the numbers: G2 robust z-score and G2 cells, % of GMNN control: higher = more G2 cells, more excess DNA replication; raw share of cells in G2: higher = larger share of cells with G2 DNA content
Hit rule: 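Active siRNAs have a G2 robust z of 5 or more median absolute deviations over the median, which in these data means about 38% or higher of GMNN control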

| target | reagent | G2 robust z-score | G2 cells, % of GMNN control | raw share of cells in G2 (%) | activity call |
| --- | --- | --- | --- | --- | --- |
| PSMG2 (proteasome assembly chaperone 2) | 1 | -0.812 | -2.74 | 3.26 | inactive |
| PSMG2 (proteasome assembly chaperone 2) | 2 | -0.354 | 0.48 | 4.69 | inactive |
| PSMG2 (proteasome assembly chaperone 2) | 3 | -0.484 | -0.44 | 2.89 | inactive |
| CHST3 (carbohydrate sulfotransferase 3) | 1 | -1.29 | -6.14 | 2.88 | inactive |
| CHST3 (carbohydrate sulfotransferase 3) | 2 | -0.658 | -1.66 | 4.08 | inactive |
| CHST3 (carbohydrate sulfotransferase 3) | 3 | -0.0452 | 2.65 | 4.1 | inactive |
| ZNF774 (zinc finger protein 774) | 1 | -0.725 | -2.13 | 2.36 | inactive |
| ZNF774 (zinc finger protein 774) | 2 | -0.971 | -3.87 | 1.82 | inactive |
| ZNF774 (zinc finger protein 774) | 3 | -0.184 | 1.67 | 4.11 | inactive |
| TTC19 (tetratricopeptide repeat domain 19) | 1 | 1.37 | 12.6 | 8.1 | inactive |
| TTC19 (tetratricopeptide repeat domain 19) | 2 | -0.214 | 1.46 | 4.89 | inactive |
| TTC19 (tetratricopeptide repeat domain 19) | 3 | -0.488 | -0.464 | 3.04 | inactive |
| TNRC6A (trinucleotide repeat containing adaptor 6A) | 1 | -0.782 | -2.54 | 2.88 | inactive |
| TNRC6A (trinucleotide repeat containing adaptor 6A) | 2 | -0.251 | 1.2 | 5 | inactive |
| TNRC6A (trinucleotide repeat containing adaptor 6A) | 3 | -0.825 | -2.84 | 2.36 | inactive |
| ZNF154 (zinc finger protein 154) | 1 | -0.322 | 0.701 | 3.76 | inactive |
| ZNF154 (zinc finger protein 154) | 2 | -0.212 | 1.47 | 6.64 | inactive |
| ZNF154 (zinc finger protein 154) | 3 | 0.225 | 4.55 | 5.25 | inactive |
| FLNC (filamin C) | 1 | -0.0395 | 2.69 | 6.21 | inactive |
| FLNC (filamin C) | 2 | 1.14 | 11 | 9.45 | inactive |
| FLNC (filamin C) | 3 | 2.56 | 21 | 11.1 | inactive |
| NEB (nebulin) | 1 | -0.409 | 0.0918 | 5.51 | inactive |
| NEB (nebulin) | 2 | -1.27 | -6 | 3.04 | inactive |
| NEB (nebulin) | 3 | -0.309 | 0.796 | 3.46 | inactive |
| SELENOM (selenoprotein M) | 1 | 1.47 | 13.3 | 9.18 | inactive |
| SELENOM (selenoprotein M) | 2 | -1.2 | -5.48 | 1.36 | inactive |
| SELENOM (selenoprotein M) | 3 | -0.51 | -0.621 | 2.35 | inactive |
| DCC (DCC netrin 1 receptor) | 1 | 1.55 | 13.8 | 9.9 | inactive |
| DCC (DCC netrin 1 receptor) | 2 | -1.12 | -4.94 | 3.19 | inactive |
| DCC (DCC netrin 1 receptor) | 3 | 3.58 | 28.2 | 13.8 | inactive |

A run of entries taken from the entries so far, as a working copy:
| target | reagent | G2 robust z-score | G2 cells, % of GMNN control | raw share of cells in G2 (%) | activity call |
| --- | --- | --- | --- | --- | --- |
| TTC19 (tetratricopeptide repeat domain 19) | 3 | -0.488 | -0.464 | 3.04 | inactive |
| TNRC6A (trinucleotide repeat containing adaptor 6A) | 1 | -0.782 | -2.54 | 2.88 | inactive |
| TNRC6A (trinucleotide repeat containing adaptor 6A) | 2 | -0.251 | 1.2 | 5 | inactive |
| TNRC6A (trinucleotide repeat containing adaptor 6A) | 3 | -0.825 | -2.84 | 2.36 | inactive |

Next reagents follow.
| target | reagent | G2 robust z-score | G2 cells, % of GMNN control | raw share of cells in G2 (%) | activity call |
| --- | --- | --- | --- | --- | --- |
| ELAPOR2 | 1 | -0.109 | 2.2 | 4.38 | inactive |
| ELAPOR2 | 2 | 1.38 | 12.7 | 7.47 | inactive |
| ELAPOR2 | 3 | -0.487 | -0.458 | 3.05 | inactive |
| TNS1 (tensin 1) | 1 | 1.96 | 16.8 | 12.6 | inactive |
| TNS1 (tensin 1) | 2 | 3.12 | 24.9 | 13.8 | inactive |
| TNS1 (tensin 1) | 3 | 0.25 | 4.73 | 5.02 | inactive |
| SMIM10 (small integral membrane protein 10) | 1 | -0.847 | -2.99 | 2.5 | inactive |
| SMIM10 (small integral membrane protein 10) | 2 | 1.02 | 10.2 | 6.93 | inactive |
| SMIM10 (small integral membrane protein 10) | 3 | 0.614 | 7.29 | 5.27 | inactive |
| GLRA1 (glycine receptor alpha 1) | 1 | 3.74 | 29.2 | 15.9 | inactive |
| GLRA1 (glycine receptor alpha 1) | 2 | -0.103 | 2.24 | 5.54 | inactive |
| GLRA1 (glycine receptor alpha 1) | 3 | 1.1 | 10.7 | 8.55 | inactive |
| PDLIM2 (PDZ and LIM domain 2) | 1 | -0.147 | 1.94 | 4.93 | inactive |
| PDLIM2 (PDZ and LIM domain 2) | 2 | -0.915 | -3.47 | 4.21 | inactive |
| PDLIM2 (PDZ and LIM domain 2) | 3 | -0.329 | 0.655 | 4.58 | inactive |
| BMPER (BMP binding endothelial regulator) | 1 | 1.71 | 15 | 8.26 | inactive |
| BMPER (BMP binding endothelial regulator) | 2 | -0.707 | -2.01 | 2.47 | inactive |
| BMPER (BMP binding endothelial regulator) | 3 | 0.978 | 9.85 | 6.98 | inactive |
| PLEKHM1 (pleckstrin homology and RUN domain containing M1) | 1 | -0.532 | -0.777 | 4.98 | inactive |
| PLEKHM1 (pleckstrin homology and RUN domain containing M1) | 2 | -0.737 | -2.22 | 3.02 | inactive |
| PLEKHM1 (pleckstrin homology and RUN domain containing M1) | 3 | 0.0963 | 3.64 | 4.73 | inactive |
| ZNF674 (zinc finger protein 674) | 1 | -0.0292 | 2.76 | 4.04 | inactive |
| ZNF674 (zinc finger protein 674) | 2 | 0.547 | 6.82 | 5.53 | inactive |
| ZNF674 (zinc finger protein 674) | 3 | -0.585 | -1.15 | 3.12 | inactive |
| C5orf15 (chromosome 5 open reading frame 15) | 1 | -0.488 | -0.469 | 4.16 | inactive |
| C5orf15 (chromosome 5 open reading frame 15) | 2 | 1.76 | 15.3 | 11.8 | inactive |
| C5orf15 (chromosome 5 open reading frame 15) | 3 | -0.544 | -0.86 | 2.76 | inactive |
| CYP4F2 (cytochrome P450 family 4 subfamily F member 2) | 1 | 0.0459 | 3.29 | 5.89 | inactive |
| CYP4F2 (cytochrome P450 family 4 subfamily F member 2) | 2 | 0.0457 | 3.29 | 6.42 | inactive |
| CYP4F2 (cytochrome P450 family 4 subfamily F member 2) | 3 | 0.605 | 7.22 | 7.82 | inactive |
| DEFB109B (defensin beta 109B) | 1 | -0.205 | 1.53 | 4.21 | inactive |
| DEFB109B (defensin beta 109B) | 2 | 0.521 | 6.63 | 5.93 | inactive |
| DEFB109B (defensin beta 109B) | 3 | 0.54 | 6.77 | 5.42 | inactive |
| ISL1 (ISL LIM homeobox 1) | 1 | -1.47 | -7.34 | 2.89 | inactive |
| ISL1 (ISL LIM homeobox 1) | 2 | 4.06 | 31.5 | 15.8 | inactive |
| ISL1 (ISL LIM homeobox 1) | 3 | -0.748 | -2.29 | 4.21 | inactive |
| UQCR10 (ubiquinol-cytochrome c reductase, complex III subunit X) | 1 | -0.619 | -1.39 | 3.53 | inactive |
| UQCR10 (ubiquinol-cytochrome c reductase, complex III subunit X) | 2 | 2.39 | 19.8 | 10.8 | inactive |
| UQCR10 (ubiquinol-cytochrome c reductase, complex III subunit X) | 3 | 1.73 | 15.1 | 13 | inactive |
